According to PubChem BioAssay AID2685 (National Center for Advancing Translational Sciences (NCATS), 2010):
The list shows a part of the results. These are further read-outs of the screen, such as a control signal, another cell line or another target. No call is given for them. Most of these compounds were active or inconclusive in the main read-out, so they are no random draw. Potencies come from curve fits of mixed quality, noted in brackets.

Assay: qHTS Assay for Lipid Storage Modulators in Drosophila S3 Cells;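 on cell number change: cells counted by Cell Tracker Red CMTPX staining in the red channel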
Details: BODIPY lipid droplet fluorescence, 18-24 h; for cell number change: measured here: cell count max response, cells fed with added oleic acid
How it was run: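 Drosophila S3 cells loaded with oleic acid (400 uM, as added) and compounds at several concentrations; lipid droplets imaged by 488-nm laser-scanning cytometry, 500–530 nm intensity and object ratio to cell channel. Percent activity normalized to 20 uM Triacsin C.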

[1] = measured here: lipid fluorescence (Fed channel) AC50, cells fed with added oleic acid
[2] = measured here: cell number channel AC50, cells fed with added oleic acid

Work on Fc1ccc(-n2c(-c3ccc4ccccc4n3)n[nH]c2=S)cc1Cl yielded a cell number change of 15.3%.

With O=c1c(Cl)c(N2CCN(c3ccccc3)CC2)cnn1C12CC3CC(CC(C3)C1)C2 the cell number change was 8.87% and the AC50 [1] was 0.082 µM [rising, partial curve, poor fit].

For COc1cc(NC(=S)NCc2cccnc2)cc(OC)c1, the AC50 [1] was 2.91 µM [falling, single point].

With CCN(CC)c1ccc(/C=N/NC(=S)NCc2ccc(OC)cc2)cc1 the cell number change was 3.98% and the AC50 [1] was 0.92 µM [rising, single point].

With CC(=O)c1ccc(C(=O)N2CCCC(C(=O)c3ccc(Cl)cc3)C2)s1 (configuration not stated) the cell number change was -8.65% and the AC50 [1] was 29.1 µM [falling, single point].

In the case of COCCOC(=O)c1c(C)oc2ccc(OCc3cc(C(=O)OC)oc3C)cc12, the cell number change is reported as -2.69% and the AC50 [1] is reported as 4.61 µM [rising, full curve, poor fit].

For O=C(c1cccc(C(F)(F)F)c1)N1CCCCCC1, the cell number change was -92.2%, the AC50 [2] was 25.9 µM [falling, partial curve, poor fit] and the AC50 [1] was 20.6 µM [falling, partial curve].

With O=Cc1ccc2cccnc2n1 the cell number change was -29% and the AC50 [1] was 29.1 µM [falling, single point].

With NC(=O)[C@@H]1CC2(CC(c3cccc(NC(=O)COc4ccc(Cl)cc4)c3)=NO2)CN1C(=O)COc1ccc(Cl)cc1 (some centres not stated) the cell number change was -16.5% and the AC50 [1] was 13 µM [falling, partial curve, poor fit].

For Nc1[nH]c(N=NC(=O)c2ccc(Cl)cc2)c2ccccc12, the cell number change was 8.8% and the AC50 [1] was 0.116 µM [rising, full curve, poor fit].

For Cc1nn2c(CN(C(=O)COc3ccccc3)c3ccccc3)nnc2c2ccccc12, the cell number change was 14.1% and the AC50 [1] was 1.16 µM [falling, single point].

In the case of O=c1c(-c2cccc([N+](=O)[O-])c2)[n+]([O-])c2ccccc2n1O, the cell number change is reported as 20.6% and the AC50 [1] is reported as 29.1 µM [rising, single point].

With CCCCOc1ccc(CONS(=O)(=O)c2ccc(NC(C)=O)cc2)cc1Cl the cell number change was 4.5% and the AC50 [1] was 6.51 µM [rising, single point].

In the case of CCn1cc(C(=O)N2CCCC2)c(=O)c2cc(S(=O)(=O)N(C)C)ccc21, the cell number change is reported as -45.7%, the AC50 [2] is reported as 0.146 µM [falling, full curve] and the AC50 [1] is reported as 0.0164 µM [falling, full curve, poor fit].

Work on Cc1ccc(-c2csc(NC(=O)CCNC(=O)c3ccc(Cl)cc3)n2)cc1 yielded a cell number change of -10.2%.

With O=C(C1CCCN(S(=O)(=O)c2ccccc2)C1)N1CCCCC1 (configuration not stated) the cell number change was 21.8%.

For COc1cnn(-c2ccc(C)cc2)c(=O)c1Cl, the cell number change was -11% and the AC50 [2] was 6.51 µM [rising, single point].
